These are yes or no findings as the source states them, for the method shown. For some assays here: In cells and extracts the contact can be indirect. Some results given as binding are weak or reduced against the parent protein; the word gives no strength. Tags and fused reporters may be left off the sequences shown.
Experiments:
[1] = biological target: T1, BD-IBH1 (ILI1 BINDING bHLH PROTEIN1 fused to GAL4BD) (Arabidopsis thaliana) (UniProt Q9SKX1); experiment: two-hybrid; yeast AH109; GAL4BD fusions of IBH1/AIF1/PAR2/OsIBH1 with GAL4AD fusions of PRE1, PRE2, ILI1 and mutants; growth on SD (-Trp-Leu-His) with different concentrations of 3-aminotriazol, 3 days, 30 °C
T1 sequence: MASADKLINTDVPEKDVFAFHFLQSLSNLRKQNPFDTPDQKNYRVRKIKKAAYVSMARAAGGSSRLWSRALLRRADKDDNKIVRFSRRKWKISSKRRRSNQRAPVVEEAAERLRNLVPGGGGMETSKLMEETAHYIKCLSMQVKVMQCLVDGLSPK

[2] = biological target: T2, BD-PAR2 (Arabidopsis thaliana) (UniProt Q9LXR7); experiment: as above
T2 sequence: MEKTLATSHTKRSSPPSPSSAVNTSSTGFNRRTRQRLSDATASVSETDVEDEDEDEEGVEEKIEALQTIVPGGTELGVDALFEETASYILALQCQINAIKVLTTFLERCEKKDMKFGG

[3] = biological target: T1, BD-IBH1 (ILI1 BINDING bHLH PROTEIN1 fused to GAL4BD) (Arabidopsis thaliana); experiment: two-hybrid; yeast AH109; liquid β-galactosidase activity assay with ONPG, measured by spectrophotometer; three biological replicates
[4] = biological target: T3, IBH1 in pBiFCt-2in1 (rBiFC fusion) (Arabidopsis thaliana) (UniProt Q9SKX1); experiment: split reporter; ratiometric BiFC (pBiFCt-2in1-CC, RFP as internal marker) in tobacco leaf epidermal cells, 40 h at 22 °C, YFP/RFP ratio, n = 50 images
T3 sequence: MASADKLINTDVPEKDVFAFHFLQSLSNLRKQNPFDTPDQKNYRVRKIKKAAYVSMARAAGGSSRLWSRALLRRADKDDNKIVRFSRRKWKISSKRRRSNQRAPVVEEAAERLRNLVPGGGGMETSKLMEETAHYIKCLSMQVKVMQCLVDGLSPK

[5] = biological target: T4, PRE1-YFP (Arabidopsis thaliana) (UniProt Q9FLE9); experiment: co-IP; extracts of ten-day-old transgenic Arabidopsis; GFP-Trap beads on PRE1-YFP; immunoblot with anti-Myc and anti-YFP; 20 mM HEPES-KOH pH 7.5, 40 mM KCl, 1 mM EDTA, 0.5% Triton X-100
T4 sequence: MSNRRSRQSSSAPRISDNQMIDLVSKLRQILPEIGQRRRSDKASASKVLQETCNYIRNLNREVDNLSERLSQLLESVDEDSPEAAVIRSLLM

[6] = biological target: T5, IBH1-cYFP (Arabidopsis thaliana) (UniProt Q9SKX1); experiment: split reporter; BiFC: IBH1-cYFP with PRE-nYFP fusions in tobacco leaves, at least 36 h at 22 °C in darkness, confocal microscopy
T5 sequence: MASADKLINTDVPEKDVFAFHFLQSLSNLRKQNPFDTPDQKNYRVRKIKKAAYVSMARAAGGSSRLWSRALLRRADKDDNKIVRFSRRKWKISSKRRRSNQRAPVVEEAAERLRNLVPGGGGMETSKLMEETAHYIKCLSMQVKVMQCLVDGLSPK

[7] = biological target: T6, BD-AIF1 (ATBS1-interacting factor 1) (Arabidopsis thaliana), Q9M9L6; experiment: two-hybrid; yeast AH109; GAL4BD fusions of IBH1/AIF1/PAR2/OsIBH1 with GAL4AD fusions of PRE1, PRE2, ILI1 and mutants; growth on SD (-Trp-Leu-His) with different concentrations of 3-aminotriazol, 3 days, 30 °C; conditions: remark: other sources report otherwise
T6 chain: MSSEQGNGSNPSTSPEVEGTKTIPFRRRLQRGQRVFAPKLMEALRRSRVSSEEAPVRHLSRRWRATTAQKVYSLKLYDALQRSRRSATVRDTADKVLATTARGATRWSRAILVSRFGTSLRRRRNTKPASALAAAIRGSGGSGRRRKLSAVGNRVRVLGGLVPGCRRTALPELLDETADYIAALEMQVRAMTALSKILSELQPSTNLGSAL

[8] = biological target: T1, BD-IBH1 (ILI1 BINDING bHLH PROTEIN1 fused to GAL4BD) (Arabidopsis thaliana); experiment: two-hybrid; yeast three-hybrid: GAL4BD-IBH1 and PRE1 or mutant (pMet25) from pBridge, GAL4AD-HBI1 from pGCADT7, AH109; growth on -Trp/-Leu/-Met/-His SD medium
[9] = biological target: T7, GST-IBH1 (Arabidopsis thaliana, UniProt Q9SKX1 1-156); experiment: pull-down; competition: GST-IBH1 on glutathione beads with MBP-HBI1 and MBP, MBP-PRE1, MBP-PRE1^S67A or MBP-PRE1^S67E; same buffers; anti-MBP immunoblot; both purified
T7 construct: also called glutathione S-transferase (GST)-IBH1; source: bacteria, purified on glutathione beads; not shown: GST, N-terminal, kept
T7 sequence (looked up): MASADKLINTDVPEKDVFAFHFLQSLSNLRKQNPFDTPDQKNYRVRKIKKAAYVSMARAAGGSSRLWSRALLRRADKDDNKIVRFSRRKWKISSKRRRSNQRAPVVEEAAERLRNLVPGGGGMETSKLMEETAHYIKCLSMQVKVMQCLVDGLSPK

Binder	binding [1]	binding [3]	further results
AD-PRE1 (PACLOBUTRAZOL-…-1 fused to GAL4AD) (protein, UniProt Q9FLE9 1-92) MSNRRSRQSSSAPRISDNQMIDLVSKLRQILPEIGQRRRSDKASASKVLQETCNYIRNLNREVDNLSERLSQLLESVDEDSPEAAVIRSLLM	binds	binds	binding [2]: binds
PRE1 in pBiFCt-2in1 (rBiFC fusion) (protein, UniProt Q9FLE9 1-92) MSNRRSRQSSSAPRISDNQMIDLVSKLRQILPEIGQRRRSDKASASKVLQETCNYIRNLNREVDNLSERLSQLLESVDEDSPEAAVIRSLLM			binding [4]: binds
IBH1-Myc (protein, UniProt Q9SKX1 1-156) MASADKLINTDVPEKDVFAFHFLQSLSNLRKQNPFDTPDQKNYRVRKIKKAAYVSMARAAGGSSRLWSRALLRRADKDDNKIVRFSRRKWKISSKRRRSNQRAPVVEEAAERLRNLVPGGGGMETSKLMEETAHYIKCLSMQVKVMQCLVDGLSPK			binding [5]: binds
AD-PRE2 (protein, UniProt Q9LXG5 1-94) MSSSRRSRQASSSSRISDDQITDLISKLRQSIPEIRQNRRSNTVSASKVLQETCNYIRNLNKEADDLSDRLTQLLESIDPNSPQAAVIRSLING	binds	binds	
AD-PRE2^S68A (protein, UniProt Q9LXG5 1-94) MSSSRRSRQASSSSRISDDQITDLISKLRQSIPEIRQNRRSNTVSASKVLQETCNYIRNLNKEADDLADRLTQLLESIDPNSPQAAVIRSLING	binds	binds	
AD-PRE1^S46A (protein, UniProt Q9FLE9 1-92) MSNRRSRQSSSAPRISDNQMIDLVSKLRQILPEIGQRRRSDKASAAKVLQETCNYIRNLNREVDNLSERLSQLLESVDEDSPEAAVIRSLLM	binds	binds	
PRE2-nYFP (protein, UniProt Q9LXG5 1-94) MSSSRRSRQASSSSRISDDQITDLISKLRQSIPEIRQNRRSNTVSASKVLQETCNYIRNLNKEADDLSDRLTQLLESIDPNSPQAAVIRSLING			binding [6]: binds
PRE2^S68A-nYFP (protein, UniProt Q9LXG5 1-94) MSSSRRSRQASSSSRISDDQITDLISKLRQSIPEIRQNRRSNTVSASKVLQETCNYIRNLNKEADDLADRLTQLLESIDPNSPQAAVIRSLING			binding [6]: binds
AD-PRE1 (PACLOBUTRAZOL-…-1 fused to GAL4AD), Q9FLE9 1-92 (protein) MSNRRSRQSSSAPRISDNQMIDLVSKLRQILPEIGQRRRSDKASASKVLQETCNYIRNLNREVDNLSERLSQLLESVDEDSPEAAVIRSLLM			binding [7]: binds
AD-PRE1^S46E (protein, UniProt Q9FLE9 1-92) MSNRRSRQSSSAPRISDNQMIDLVSKLRQILPEIGQRRRSDKASAEKVLQETCNYIRNLNREVDNLSERLSQLLESVDEDSPEAAVIRSLLM	binds	binds	
AD-PRE1^S67E (protein, UniProt Q9FLE9 1-92) MSNRRSRQSSSAPRISDNQMIDLVSKLRQILPEIGQRRRSDKASASKVLQETCNYIRNLNREVDNLEERLSQLLESVDEDSPEAAVIRSLLM			binding [2]: binds
AD-HBI1 (protein, UniProt Q9ZPW3 1-337) MLEGLVSQESLSLNSMDMSVLERLKWVQQQQQQLQQVVSHSSNNSPELLQILQFHGSNNDELLESSFSQFQMLGSGFGPNYNMGFGPPHESISRTSSCHMEPVDTMEVLLKTGEETRAVALKNKRKPEVKTREEQKTEKKIKVEAETESSMKGKSNMGNTEASSDTSKETSKGASENQKLDYIHVRARRGQATDRHSLAERARREKISKKMKYLQDIVPGCNKVTGKAGMLDEIINYVQCLQRQVEFLSMKLAVLNPELELAVEDVSVKQFQAYFTNVVASKQSIMVDVPLFPLDQQGSLDLSAINPNQTTSIEAPSGSWETQSQSLYNTSSLGFHY			binding [8]: binds
PRE1 as the third protein of the yeast three-hybrid assay (protein, UniProt Q9FLE9 1-92) MSNRRSRQSSSAPRISDNQMIDLVSKLRQILPEIGQRRRSDKASASKVLQETCNYIRNLNREVDNLSERLSQLLESVDEDSPEAAVIRSLLM			binding [8]: binds
PRE1^S67A as the third protein of the yeast three-hybrid assay (protein, UniProt Q9FLE9 1-92) MSNRRSRQSSSAPRISDNQMIDLVSKLRQILPEIGQRRRSDKASASKVLQETCNYIRNLNREVDNLAERLSQLLESVDEDSPEAAVIRSLLM			binding [8]: binds
MBP-HBI1 (protein, UniProt Q9ZPW3 1-337) MLEGLVSQESLSLNSMDMSVLERLKWVQQQQQQLQQVVSHSSNNSPELLQILQFHGSNNDELLESSFSQFQMLGSGFGPNYNMGFGPPHESISRTSSCHMEPVDTMEVLLKTGEETRAVALKNKRKPEVKTREEQKTEKKIKVEAETESSMKGKSNMGNTEASSDTSKETSKGASENQKLDYIHVRARRGQATDRHSLAERARREKISKKMKYLQDIVPGCNKVTGKAGMLDEIINYVQCLQRQVEFLSMKLAVLNPELELAVEDVSVKQFQAYFTNVVASKQSIMVDVPLFPLDQQGSLDLSAINPNQTTSIEAPSGSWETQSQSLYNTSSLGFHY			binding [9]: binds
AD-PRE1^S67A (protein, UniProt Q9FLE9 1-92) MSNRRSRQSSSAPRISDNQMIDLVSKLRQILPEIGQRRRSDKASASKVLQETCNYIRNLNREVDNLAERLSQLLESVDEDSPEAAVIRSLLM	binds	binds	
